{"source": "the supplement of paper PMC5949888", "note": "± gives the standard deviation of the averaged measurements. Most values lie at the floor of the assay. Slopes are relative: functional sequences can read slightly below zero."}
{"tested_on": "Saccharomyces cerevisiae PS128 hsf1 delta, HSF1(1-493) fusion", "test": "growth estimate (transactivation domain function in HSF1 fusion, heat-shock survival) (a.u. (slope of normalised read count over time)); higher = stronger growth at 37°C, i.e. more transactivation activity", "conditions": "library: random library"}
{"substance": "TVRAAKGSEGLVGHLASPRG", "growth estimate": "< -0.25"}
{"substance": "QACSMKTRLHVPD", "growth estimate": "< -0.25"}
{"substance": "VSHGHRAGTPLYEAL", "growth estimate": "< -0.25"}
{"substance": "VNDPHGSHRFVPP", "growth estimate": "< -0.25"}
{"substance": "GGQC", "growth estimate": "< -0.25"}
{"substance": "TRYGTLVVYEVKLGWEAIGV", "growth estimate": "< -0.25"}
{"substance": "ISNPCRISALGKVALPGL", "growth estimate": "< -0.25"}
{"substance": "GCGKL", "growth estimate": "< -0.25"}
{"substance": "NWVAA", "growth estimate": "< -0.25"}
{"substance": "PSRYSLPEAPDNTIRAPDQS", "growth estimate": "< -0.25"}
{"substance": "AIGSEGTH", "growth estimate": "< -0.25"}
{"substance": "LRLGLFVTGREFRWYWTSPD", "growth estimate": "< -0.25"}
{"substance": "RMVGRLAQPREC", "growth estimate": "< -0.25"}
{"substance": "MHYGCIVASMR", "growth estimate": "< -0.25"}
{"substance": "GCSIRATLTWPRSIAHTPVC", "growth estimate": "< -0.25"}
{"substance": "KYG", "growth estimate": "< -0.25"}
{"substance": "GSIMTLGN", "growth estimate": "< -0.25"}
{"substance": "PGSATAGA", "growth estimate": "< -0.25"}
{"substance": "RLYKSHEHSSNRQTGAVSAL", "growth estimate": "< -0.25"}
{"substance": "SQLAEGPFNRGRVAISSSRR", "growth estimate": "< -0.25"}
{"substance": "VSGFFCRSSIPNACRVGRSR", "growth estimate": "< -0.25"}
{"substance": "RPDNKG", "growth estimate": "< -0.25"}
{"substance": "EYFNNRNSFRDLLVLSKWLS", "growth estimate": "< -0.25"}
{"substance": "TALYN", "growth estimate": "< -0.25"}
{"substance": "FEYHGLQ", "growth estimate": "< -0.25"}
{"substance": "REHPSRPGGELFS", "growth estimate": "< -0.25"}
{"substance": "TDRLTGFSLRFSIAAALLP", "growth estimate": "< -0.25"}
{"substance": "GVNGSPGNFGLVKPYATLLA", "growth estimate": "< -0.25"}
{"substance": "TRCFYSLCINTSTANLSYFT", "growth estimate": "< -0.25"}
{"substance": "RSVFD", "growth estimate": "< -0.25"}
{"substance": "FRDPETISFH", "growth estimate": "< -0.25"}
{"substance": "TLSVRLTHSIRN", "growth estimate": "< -0.25"}
{"substance": "SVKGASRGSCLARVVGS", "growth estimate": "< -0.25"}
{"substance": "GLDGQRCGKLCSKVRFLTPL", "growth estimate": "< -0.25"}
{"substance": "CKEHSGRRYEYNAS", "growth estimate": "< -0.25"}
{"substance": "DGQRRLLCNLD", "growth estimate": "< -0.25"}
{"substance": "GWLNRHGLHCSLDRFARGER", "growth estimate": "< -0.25"}
{"substance": "TVYGEKHFWPGSSRLGGESR", "growth estimate": "< -0.25"}
{"substance": "DQSKVVGSVQVCQ", "growth estimate": "< -0.25"}
{"substance": "FIG", "growth estimate": "< -0.25"}
{"substance": "GGTYRELTECGRSDPTFQPF", "growth estimate": "< -0.25"}
{"substance": "VIANQAGDSVF", "growth estimate": "< -0.25"}
{"substance": "RYGGMCFIRWEADSLCDIST", "growth estimate": "< -0.25"}
{"substance": "NERRIIELRTRSIRAASGSL", "growth estimate": "< -0.25"}
{"substance": "ETRGVATAGGPCVHPLTCGM", "growth estimate": "< -0.25"}
{"substance": "VRTRCATWCCATHIDKCYSV", "growth estimate": "< -0.25"}
{"substance": "NIA", "growth estimate": "< -0.25"}
{"substance": "LLATSLVSLIVPTSATQNAW", "growth estimate": "< -0.25"}
{"substance": "PYTRGRTRGLPRKKISLHTR", "growth estimate": "< -0.25"}
{"substance": "GQTIFEGK", "growth estimate": "< -0.25"}
{"substance": "AVLKQMDGVRCQRRR", "growth estimate": "< -0.25"}
{"substance": "VVKHTC", "growth estimate": "< -0.25"}
{"substance": "WAR", "growth estimate": "< -0.25"}
{"substance": "RDGFFVHHLT", "growth estimate": "< -0.25"}
{"substance": "PVGPCIRLMEAP", "growth estimate": "< -0.25"}
{"substance": "NRSRVGLHHLTISMTAGIAR", "growth estimate": "< -0.25"}
{"substance": "IQFVQLLRGYHSES", "growth estimate": "< -0.25"}
{"substance": "SREQDAFSQGNGLGNGEGDV", "growth estimate": "< -0.25"}
{"substance": "VFAL", "growth estimate": "< -0.25"}
{"substance": "ITPSRHGQALPGNWMEATCP", "growth estimate": "< -0.25"}
{"substance": "ESGSPRRGFLHHSLVFYCGP", "growth estimate": "< -0.25"}
{"substance": "QMSTRPTHGAGYNIHDYGCP", "growth estimate": "< -0.25"}
{"substance": "GEHI", "growth estimate": "< -0.25"}
{"substance": "GCRS", "growth estimate": "< -0.25"}
{"substance": "LRPQGYVYHCAYNFRGLNGL", "growth estimate": "< -0.25"}
{"substance": "NCSTYTRSLGV", "growth estimate": "< -0.25"}
{"substance": "LVGNWDKNEDCHDFRTAFW", "growth estimate": -0.115}
{"substance": "FHHPISHQLERNVHFSVEST", "growth estimate": "< -0.25"}
{"substance": "ICRGIRTLGGFVTSMSGTTT", "growth estimate": "< -0.25"}
{"substance": "WRSSRKIYGETHLLLT", "growth estimate": "< -0.25"}
{"substance": "PARSDGKYSCSSTKLLDTRA", "growth estimate": "< -0.25"}
{"substance": "SRQARSLVTVGSHRCSLYVN", "growth estimate": "< -0.25"}
{"substance": "YFC", "growth estimate": "< -0.25"}
{"substance": "RRLGDRPVLLWLNLQTGLSN", "growth estimate": "< -0.25"}
{"substance": "GKGSIRLW", "growth estimate": "< -0.25"}
{"substance": "NGRGWGPSRYGPE", "growth estimate": "< -0.25"}
{"substance": "ELIFDAMRSHLCVERPSSVD", "growth estimate": "< -0.25"}
{"substance": "RVFAPPEKSHGCLPIGVYKL", "growth estimate": "< -0.25"}
{"substance": "PKTERS", "growth estimate": "< -0.25"}
{"substance": "RLQVVTTGLAGQIKTVERSV", "growth estimate": "< -0.25"}
{"substance": "IWKSRFQRGSKKTILLE", "growth estimate": "< -0.25"}
{"substance": "IAFE", "growth estimate": -0.237}
{"substance": "SPDENRDSAQAHRNGPRFRM", "growth estimate": "< -0.25"}
{"substance": "SVKRPGGSLGT", "growth estimate": "< -0.25"}
{"substance": "RNGLPHYPLEPQHVAQGDHG", "growth estimate": "< -0.25"}
{"substance": "LDI", "growth estimate": "< -0.25"}
{"substance": "PLTGRIKAQLNRREYCGDLW", "growth estimate": "< -0.25"}
{"substance": "QNQL", "growth estimate": "< -0.25"}
{"substance": "EPW", "growth estimate": "< -0.25"}
{"substance": "SPEL", "growth estimate": "< -0.25"}
{"substance": "KPGWYGAGG", "growth estimate": "< -0.25"}
{"substance": "KVLGR", "growth estimate": "< -0.25"}
{"substance": "CSGMRIQISSGQAMGQQLNA", "growth estimate": "< -0.25"}
{"substance": "PIMVASVSKTSYFVPYL", "growth estimate": "< -0.25"}
{"substance": "PSKIERPKLRRR", "growth estimate": "< -0.25"}
{"substance": "SILSGTLRVTDRNYAHF", "growth estimate": "< -0.25"}
{"substance": "QVDVTSKLTPLSSKLLWACS", "growth estimate": "< -0.25"}
{"substance": "ALRAMLSTV", "growth estimate": "< -0.25"}
{"substance": "GFVTGSWSGFHGRFRHCAPS", "growth estimate": "< -0.25"}
{"substance": "VYLFLGLGGHVSSKWIEHPR", "growth estimate": "< -0.25"}
{"substance": "HAVNRLDQTHL", "growth estimate": "< -0.25"}
{"substance": "TPQLARYSWQNGVKRGLSAD", "growth estimate": "< -0.25"}
{"substance": "FEGPVSYDSSASQPVGEKIR", "growth estimate": "< -0.25"}
{"substance": "KLRGVRHYDVYTVGGDPSRV", "growth estimate": "< -0.25"}
{"substance": "TTRSSGPFPVFYRGVVGLEA", "growth estimate": "< -0.25"}
{"substance": "RIGL", "growth estimate": "< -0.25"}
{"substance": "EFRAFRELYGRCSVTLARSE", "growth estimate": "< -0.25"}
{"substance": "LGLSFSRKAVFIPLCDKRYQ", "growth estimate": "< -0.25"}
{"substance": "TDG", "growth estimate": "-0.2497 ± 0.00035"}
{"substance": "RGATVDLNSEVTKNLT", "growth estimate": "< -0.25"}
{"substance": "IDGCYPFRRILCQCGFCGQG", "growth estimate": "< -0.25"}
{"substance": "GGTASACITTVRG", "growth estimate": "< -0.25"}
{"substance": "QGGNLDAV", "growth estimate": "< -0.25"}
{"substance": "MSPY", "growth estimate": "< -0.25"}
{"substance": "LLD", "growth estimate": "< -0.25"}
{"substance": "DGS", "growth estimate": "< -0.25"}
{"substance": "DPYHRMGASNGPGARPTL", "growth estimate": "< -0.25"}
{"substance": "RKRDTN", "growth estimate": "< -0.25"}
{"substance": "PGFICLTGSRDYCDSIHPAF", "growth estimate": "< -0.25"}
{"substance": "LVLSSPGLQVIRRVS", "growth estimate": "< -0.25"}
{"substance": "LSFCFGAIATGAPGGSPVVD", "growth estimate": "< -0.25"}
{"substance": "SRRKTGSFCQKGPNRRNAHG", "growth estimate": "< -0.25"}
{"substance": "LPGCCAPR", "growth estimate": "< -0.25"}
{"substance": "FHLW", "growth estimate": "< -0.25"}
{"substance": "SHADICDCHQRAKNLQTRL", "growth estimate": -0.246}
{"substance": "TILRYSLSRPVSLFRTDPAR", "growth estimate": "< -0.25"}
{"substance": "CDRSPMIGQVYPHSKSADKG", "growth estimate": "< -0.25"}
{"substance": "THLKSQSTRGMLLHFSPGFT", "growth estimate": "< -0.25"}
{"substance": "VKDGGDNLRGISAKLQSSEL", "growth estimate": "< -0.25"}
{"substance": "STRS", "growth estimate": "< -0.25"}
{"substance": "YLGGRPNRADQDQL", "growth estimate": "< -0.25"}
{"substance": "RTWNPVMCVKTTCVYGFGGP", "growth estimate": "< -0.25"}
{"substance": "NIRWTWASPLPAGEVERISQ", "growth estimate": "< -0.25"}
{"substance": "IQSPR", "growth estimate": "< -0.25"}
{"substance": "ANGSVAISRQPTGRHGLPQQ", "growth estimate": "< -0.25"}
{"substance": "TGGDPGWIYCHSICFA", "growth estimate": "< -0.25"}
{"substance": "YQERPDGFTWYGVQITCKRH", "growth estimate": -0.246}
{"substance": "VDTSDPDQF", "growth estimate": "< -0.25"}
{"substance": "GLIEAAGRQWENTDCETVMR", "growth estimate": "< -0.25"}
{"substance": "REMLGSSILSWVARDEDTGS", "growth estimate": "< -0.25"}
{"substance": "RQMCPSRSSIFIHRLAPPWI", "growth estimate": "< -0.25"}
{"substance": "FLTTGFNRSVGP", "growth estimate": "< -0.25"}
{"substance": "CELSTEGGITPMKAHAQKLC", "growth estimate": -0.229}
{"substance": "EITKLFTFRAGSMLWSSLVR", "growth estimate": "< -0.25"}
{"substance": "RMDVNDRHSRPRRIGYSK", "growth estimate": "< -0.25"}
{"substance": "TSGRMPAYSKKEDARIPSRR", "growth estimate": "< -0.25"}
